Measurements from article doi:10.1101/2022.08.19.504532 (bioRxiv, 2022).
No constants are given. Whether binding was seen depends on the method and setting.

Sequences of proteins named here, by UniProt entry; tags and fusion partners are left off. A change or cut given only in a name is not applied to a line headed by its entry. A line that says so, or that is headed by a name, gives the form on record, which may keep a tag or linker.
3xFLAG-BIRC6 double mutant (BIRmut/ΔHelix) (Q9NR09, form named): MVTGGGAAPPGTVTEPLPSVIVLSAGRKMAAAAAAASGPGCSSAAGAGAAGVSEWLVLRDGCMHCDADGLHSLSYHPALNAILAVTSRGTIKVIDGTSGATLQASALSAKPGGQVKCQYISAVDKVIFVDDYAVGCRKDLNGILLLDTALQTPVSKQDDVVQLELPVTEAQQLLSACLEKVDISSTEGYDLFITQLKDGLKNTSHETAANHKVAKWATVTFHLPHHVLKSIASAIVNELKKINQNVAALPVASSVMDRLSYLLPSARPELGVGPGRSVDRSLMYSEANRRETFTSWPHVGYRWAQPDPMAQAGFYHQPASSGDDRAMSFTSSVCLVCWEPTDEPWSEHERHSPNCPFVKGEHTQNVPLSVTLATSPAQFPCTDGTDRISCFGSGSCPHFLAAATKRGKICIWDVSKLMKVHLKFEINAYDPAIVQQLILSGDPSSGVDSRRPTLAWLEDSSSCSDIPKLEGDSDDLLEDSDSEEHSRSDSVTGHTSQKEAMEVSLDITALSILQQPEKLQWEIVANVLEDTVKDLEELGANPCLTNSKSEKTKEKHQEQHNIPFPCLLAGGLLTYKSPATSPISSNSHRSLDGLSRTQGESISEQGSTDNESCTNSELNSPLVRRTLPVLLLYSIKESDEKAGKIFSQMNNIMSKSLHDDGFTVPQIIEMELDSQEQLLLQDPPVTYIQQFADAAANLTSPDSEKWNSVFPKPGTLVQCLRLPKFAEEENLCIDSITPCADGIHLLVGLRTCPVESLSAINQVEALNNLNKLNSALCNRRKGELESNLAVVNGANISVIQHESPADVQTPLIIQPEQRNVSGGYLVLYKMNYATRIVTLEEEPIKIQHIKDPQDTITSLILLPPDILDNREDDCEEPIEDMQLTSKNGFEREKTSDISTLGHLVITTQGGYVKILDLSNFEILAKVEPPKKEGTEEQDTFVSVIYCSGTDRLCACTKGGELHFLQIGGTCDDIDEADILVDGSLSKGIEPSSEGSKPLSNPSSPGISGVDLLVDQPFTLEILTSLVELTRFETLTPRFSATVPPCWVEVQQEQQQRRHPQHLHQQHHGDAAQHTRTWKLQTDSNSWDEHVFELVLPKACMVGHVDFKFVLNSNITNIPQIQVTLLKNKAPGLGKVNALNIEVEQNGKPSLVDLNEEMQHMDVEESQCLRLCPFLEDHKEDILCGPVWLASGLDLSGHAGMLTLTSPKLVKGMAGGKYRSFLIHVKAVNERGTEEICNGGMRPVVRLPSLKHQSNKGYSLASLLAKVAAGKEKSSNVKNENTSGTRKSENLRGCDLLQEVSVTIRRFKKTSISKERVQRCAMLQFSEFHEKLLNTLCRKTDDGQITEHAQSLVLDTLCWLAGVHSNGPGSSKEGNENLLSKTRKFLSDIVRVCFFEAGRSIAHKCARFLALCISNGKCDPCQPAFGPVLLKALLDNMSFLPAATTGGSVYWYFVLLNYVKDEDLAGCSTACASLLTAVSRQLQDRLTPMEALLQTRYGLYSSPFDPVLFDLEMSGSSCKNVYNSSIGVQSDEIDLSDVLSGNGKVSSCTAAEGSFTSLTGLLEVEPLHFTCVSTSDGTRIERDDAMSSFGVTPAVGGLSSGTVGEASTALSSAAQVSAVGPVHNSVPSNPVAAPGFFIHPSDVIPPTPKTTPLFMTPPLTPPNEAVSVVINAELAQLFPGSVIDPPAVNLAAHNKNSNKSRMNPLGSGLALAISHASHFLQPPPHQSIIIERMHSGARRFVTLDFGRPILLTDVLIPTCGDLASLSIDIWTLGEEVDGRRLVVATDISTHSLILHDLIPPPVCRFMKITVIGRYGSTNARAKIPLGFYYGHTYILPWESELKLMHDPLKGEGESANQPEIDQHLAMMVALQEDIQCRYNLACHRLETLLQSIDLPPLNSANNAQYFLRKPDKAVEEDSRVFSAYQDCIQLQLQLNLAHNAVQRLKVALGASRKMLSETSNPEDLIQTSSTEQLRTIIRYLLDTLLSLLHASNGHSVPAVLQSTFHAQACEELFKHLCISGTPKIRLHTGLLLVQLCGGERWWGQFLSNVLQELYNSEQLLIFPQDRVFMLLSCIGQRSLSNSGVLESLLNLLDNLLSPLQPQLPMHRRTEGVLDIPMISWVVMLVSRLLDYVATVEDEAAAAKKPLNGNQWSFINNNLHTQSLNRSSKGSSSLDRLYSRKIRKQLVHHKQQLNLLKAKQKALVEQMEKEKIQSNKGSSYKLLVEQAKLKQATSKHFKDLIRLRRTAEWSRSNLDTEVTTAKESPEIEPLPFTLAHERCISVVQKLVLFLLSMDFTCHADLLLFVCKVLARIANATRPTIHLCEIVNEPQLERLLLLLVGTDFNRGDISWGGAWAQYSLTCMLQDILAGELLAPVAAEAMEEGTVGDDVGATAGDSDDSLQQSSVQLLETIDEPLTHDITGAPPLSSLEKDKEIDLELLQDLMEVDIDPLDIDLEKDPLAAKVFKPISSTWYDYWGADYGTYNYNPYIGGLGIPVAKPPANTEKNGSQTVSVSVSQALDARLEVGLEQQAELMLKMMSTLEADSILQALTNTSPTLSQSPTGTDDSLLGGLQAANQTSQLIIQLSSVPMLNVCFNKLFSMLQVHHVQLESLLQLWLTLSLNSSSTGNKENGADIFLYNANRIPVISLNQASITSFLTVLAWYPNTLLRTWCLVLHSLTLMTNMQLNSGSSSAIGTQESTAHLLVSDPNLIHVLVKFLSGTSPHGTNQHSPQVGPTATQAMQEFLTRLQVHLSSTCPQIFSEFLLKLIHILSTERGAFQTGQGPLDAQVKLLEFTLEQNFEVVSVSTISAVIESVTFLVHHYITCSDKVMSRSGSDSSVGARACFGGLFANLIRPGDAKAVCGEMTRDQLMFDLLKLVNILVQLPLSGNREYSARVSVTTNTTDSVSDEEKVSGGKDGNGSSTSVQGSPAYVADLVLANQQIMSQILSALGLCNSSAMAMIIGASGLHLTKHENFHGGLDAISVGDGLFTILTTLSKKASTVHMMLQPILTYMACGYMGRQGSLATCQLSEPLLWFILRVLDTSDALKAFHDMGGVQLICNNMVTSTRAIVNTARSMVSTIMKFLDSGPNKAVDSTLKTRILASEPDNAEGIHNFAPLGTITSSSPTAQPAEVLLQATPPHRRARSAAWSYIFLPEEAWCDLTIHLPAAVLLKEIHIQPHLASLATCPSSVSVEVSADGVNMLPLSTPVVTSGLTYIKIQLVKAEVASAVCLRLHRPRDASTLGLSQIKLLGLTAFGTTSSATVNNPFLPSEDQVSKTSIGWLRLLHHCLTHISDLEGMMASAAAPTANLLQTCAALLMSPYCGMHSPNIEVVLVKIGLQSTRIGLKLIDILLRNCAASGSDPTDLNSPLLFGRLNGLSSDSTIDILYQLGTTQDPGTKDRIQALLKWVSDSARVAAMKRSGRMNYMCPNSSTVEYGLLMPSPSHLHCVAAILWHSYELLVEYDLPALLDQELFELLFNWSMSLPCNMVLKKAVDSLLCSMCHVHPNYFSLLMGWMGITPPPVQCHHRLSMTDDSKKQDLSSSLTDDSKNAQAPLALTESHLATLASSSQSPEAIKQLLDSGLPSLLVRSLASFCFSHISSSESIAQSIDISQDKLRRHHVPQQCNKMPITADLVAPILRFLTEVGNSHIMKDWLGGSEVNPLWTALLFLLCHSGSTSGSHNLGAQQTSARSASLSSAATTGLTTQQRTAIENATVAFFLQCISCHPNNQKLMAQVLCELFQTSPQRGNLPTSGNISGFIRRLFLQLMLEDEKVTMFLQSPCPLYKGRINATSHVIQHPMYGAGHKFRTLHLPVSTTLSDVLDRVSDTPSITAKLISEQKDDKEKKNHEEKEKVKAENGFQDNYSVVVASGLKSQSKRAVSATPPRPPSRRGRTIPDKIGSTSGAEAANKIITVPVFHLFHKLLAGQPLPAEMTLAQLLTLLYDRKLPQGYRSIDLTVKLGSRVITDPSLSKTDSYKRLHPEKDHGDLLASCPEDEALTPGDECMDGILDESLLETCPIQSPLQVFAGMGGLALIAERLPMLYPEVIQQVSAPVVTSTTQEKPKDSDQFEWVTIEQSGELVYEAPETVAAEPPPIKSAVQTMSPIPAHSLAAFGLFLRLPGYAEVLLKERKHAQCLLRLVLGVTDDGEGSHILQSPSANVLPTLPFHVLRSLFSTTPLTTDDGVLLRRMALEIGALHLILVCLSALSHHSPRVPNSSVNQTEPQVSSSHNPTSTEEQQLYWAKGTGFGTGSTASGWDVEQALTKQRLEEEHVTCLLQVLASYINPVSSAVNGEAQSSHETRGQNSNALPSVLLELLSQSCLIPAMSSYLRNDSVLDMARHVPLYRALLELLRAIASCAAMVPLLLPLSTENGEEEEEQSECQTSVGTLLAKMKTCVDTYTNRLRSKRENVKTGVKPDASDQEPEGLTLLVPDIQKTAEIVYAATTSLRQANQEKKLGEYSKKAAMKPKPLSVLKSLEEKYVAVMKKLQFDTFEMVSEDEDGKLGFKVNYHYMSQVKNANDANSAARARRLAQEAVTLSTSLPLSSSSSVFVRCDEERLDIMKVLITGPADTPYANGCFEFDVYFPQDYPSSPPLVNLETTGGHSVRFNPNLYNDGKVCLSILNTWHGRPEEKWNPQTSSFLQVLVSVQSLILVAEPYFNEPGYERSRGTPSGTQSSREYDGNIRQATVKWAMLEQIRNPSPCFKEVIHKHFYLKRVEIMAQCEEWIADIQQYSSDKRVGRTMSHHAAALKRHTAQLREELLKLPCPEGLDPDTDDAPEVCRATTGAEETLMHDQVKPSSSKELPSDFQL

Target: 3xFLAG-BIRC6 double mutant (BIRmut/ΔHelix) (human) (UniProt Q9NR09)
Assay: FRET or BRET

B1: BODIPY-labeled Smac-Cys (natural protein)
chain: AVPIAQKSEPHSLSSEALMRRAVSLVTDSTSTFLSQTTYALIEAITEYTKAVYTLTSLYRQYTSLLGKMNSEEEDEVWQVIIGARAEMTSKHQEYLKLETTWMTAVGLSEMAAEAAYQTGADQASITARNHIQLVKLQVEEVHQLSRKAETKLAEAQIEELRQKTQEEGEERAESEQEAYLREDC
modifications: BODIPY FL Maleimide on the introduced cysteine (degree of labeling 0.48)
binding: no binding (tested: 4 µM)
